Results: paper PMC9584626
Where a chain is given by its changes, count along the chain named. Like-named read-outs stand apart in the source and are kept apart here. Results are given in words; binding and its absence hold for the method and conditions named. Binding seen in cells or lysates may run through a third protein. For some of these results: Binding calls can cover weak binding; strength is not graded here. For some of these results: Tags and fused reporters may be left off the sequences shown.

Chains of the proteins cited; added tags and fusions are not shown. Lines headed by an entry give the natural chain unless they say otherwise; changes in a name come on top. Residues count along the entry.
UniProt Q9LXL1: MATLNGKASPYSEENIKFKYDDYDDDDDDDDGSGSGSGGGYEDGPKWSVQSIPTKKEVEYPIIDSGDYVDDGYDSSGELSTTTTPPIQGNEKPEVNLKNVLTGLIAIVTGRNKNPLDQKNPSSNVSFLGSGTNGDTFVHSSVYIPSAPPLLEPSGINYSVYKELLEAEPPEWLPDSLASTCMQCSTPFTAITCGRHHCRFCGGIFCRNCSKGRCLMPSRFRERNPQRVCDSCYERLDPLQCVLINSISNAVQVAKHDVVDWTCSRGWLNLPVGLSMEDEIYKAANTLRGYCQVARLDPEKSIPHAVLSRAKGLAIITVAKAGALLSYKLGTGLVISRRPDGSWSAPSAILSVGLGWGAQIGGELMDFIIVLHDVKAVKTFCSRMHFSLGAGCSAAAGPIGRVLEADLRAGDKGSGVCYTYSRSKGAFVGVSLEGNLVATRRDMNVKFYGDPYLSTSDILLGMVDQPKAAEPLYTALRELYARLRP
UniProt Q8S926, residues 1-118: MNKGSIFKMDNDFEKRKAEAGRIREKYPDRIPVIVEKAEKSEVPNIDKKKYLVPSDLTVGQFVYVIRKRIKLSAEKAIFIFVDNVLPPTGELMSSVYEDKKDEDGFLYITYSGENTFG
UniProt Q9LHG8: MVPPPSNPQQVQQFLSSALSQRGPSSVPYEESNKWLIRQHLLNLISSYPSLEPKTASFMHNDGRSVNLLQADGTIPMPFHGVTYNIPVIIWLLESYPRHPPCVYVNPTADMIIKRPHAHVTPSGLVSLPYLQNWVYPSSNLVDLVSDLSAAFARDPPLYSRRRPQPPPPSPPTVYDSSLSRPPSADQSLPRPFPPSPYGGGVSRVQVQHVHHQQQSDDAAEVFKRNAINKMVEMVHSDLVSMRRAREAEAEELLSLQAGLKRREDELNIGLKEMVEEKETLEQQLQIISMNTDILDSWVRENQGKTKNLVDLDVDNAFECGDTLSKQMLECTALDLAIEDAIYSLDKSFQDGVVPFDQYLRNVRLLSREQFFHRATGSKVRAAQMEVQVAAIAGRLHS

Experiments:
[1] = biological target: mCherry-CFS1 (cell death related endosomal FYVE/SYLF protein 1) (Arabidopsis thaliana) (UniProt Q9LXL1); experiment: co-IP; RFP-Trap magnetic agarose beads, 1 h, lysates of 7-d-old seedlings co-expressing the proteins, EDTA-free buffer; seedlings in control or nitrogen-deficient 1/2 MS media for 12 h; blots with anti-GFP and anti-RFP
[2] = biological target: T1, GST-ATG8I (Arabidopsis thaliana) (UniProt Q9LRP7); experiment: pull-down; GST pull-down: 100 ul E. coli lysate with the GST bait mixed with 400 ul plant lysate, glutathione magnetic agarose beads, 1 h at 4°C, EDTA-free buffer (25 mM Tris/HCl pH 7.5, 150 mM NaCl, 0.1% Nonidet P-40/Igepal, 10 uM ZnCl2); blots with anti-GST and anti-RFP
T1 sequence: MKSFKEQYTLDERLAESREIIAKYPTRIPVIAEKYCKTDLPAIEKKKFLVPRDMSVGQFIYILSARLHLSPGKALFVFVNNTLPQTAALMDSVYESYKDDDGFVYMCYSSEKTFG

[3] = biological target: T2, GST-ATG8A^ADS (Arabidopsis thaliana) (UniProt Q8LEM4); experiment: as above
T2 sequence: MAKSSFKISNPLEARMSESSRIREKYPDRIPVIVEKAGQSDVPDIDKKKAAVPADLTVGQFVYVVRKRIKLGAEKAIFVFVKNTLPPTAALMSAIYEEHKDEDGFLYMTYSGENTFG

[4] = biological target: T3, GST-ATG8F (Arabidopsis thaliana) (UniProt Q8VYK7); experiment: as above
T3 sequence: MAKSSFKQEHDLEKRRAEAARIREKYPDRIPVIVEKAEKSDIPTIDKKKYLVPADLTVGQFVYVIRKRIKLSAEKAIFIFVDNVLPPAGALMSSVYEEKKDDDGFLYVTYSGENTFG

[5] = biological target: T4, GST-ATG8B (Arabidopsis thaliana) (UniProt Q9XEB5); experiment: as above
T4 sequence: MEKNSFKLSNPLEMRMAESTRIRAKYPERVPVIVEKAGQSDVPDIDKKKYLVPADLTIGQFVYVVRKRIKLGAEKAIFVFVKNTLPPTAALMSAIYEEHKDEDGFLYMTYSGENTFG

[6] = biological target: T5, GST-ATG8G (Arabidopsis thaliana) (UniProt Q9LZZ9); experiment: as above
T5 sequence: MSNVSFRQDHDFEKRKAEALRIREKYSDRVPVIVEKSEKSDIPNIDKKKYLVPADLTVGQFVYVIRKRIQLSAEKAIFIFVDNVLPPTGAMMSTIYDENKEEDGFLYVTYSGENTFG

[7] = biological target: GST-ATG8E (Arabidopsis thaliana) (UniProt Q8S926); experiment: as above
[8] = biological target: T6, GST-ATG8C (Arabidopsis thaliana) (UniProt Q8S927); experiment: as above
T6 sequence: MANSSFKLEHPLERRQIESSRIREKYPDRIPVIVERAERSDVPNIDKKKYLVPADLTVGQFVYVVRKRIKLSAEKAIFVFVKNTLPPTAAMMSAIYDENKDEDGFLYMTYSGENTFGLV

[9] = biological target: T7, GST-ATG8A (Arabidopsis thaliana) (UniProt Q8LEM4); experiment: as above
T7 sequence: T2 sequence with A50Y, A51L

[10] = biological target: T8, GST-ATG8H (Arabidopsis thaliana) (UniProt Q8S925); experiment: as above
T8 sequence: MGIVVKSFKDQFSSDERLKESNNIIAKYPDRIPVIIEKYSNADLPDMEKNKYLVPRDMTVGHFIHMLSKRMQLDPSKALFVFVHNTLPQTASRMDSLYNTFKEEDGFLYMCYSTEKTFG

[11] = biological target: T9, GST-ATG8D (Arabidopsis thaliana) (UniProt Q9SL04); experiment: as above
T9 sequence: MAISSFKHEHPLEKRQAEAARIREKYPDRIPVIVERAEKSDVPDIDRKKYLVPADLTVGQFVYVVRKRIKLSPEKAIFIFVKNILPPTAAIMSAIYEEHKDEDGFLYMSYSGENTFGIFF

[12] = biological target: T7, GST-ATG8A (Arabidopsis thaliana); experiment: pull-down; GST pull-down coupled with peptide competition: as a2, AIM peptide or AIM mutant peptide added to a final concentration of 200 uM
[13] = biological target: mCherry-CFS1 (cell death related endosomal FYVE/SYLF protein 1) (Arabidopsis thaliana) (UniProt Q9LXL1); experiment: co-IP; RFP-Trap magnetic agarose beads, 1 h, lysates of 7-d-old seedlings co-expressing the proteins, EDTA-free buffer; seedlings in control or nitrogen-deficient 1/2 MS media for 12 h; blots with anti-GFP and anti-RFP; remark: listed apart in the source

Measured: binding

VPS23A-mTurquoise2 (from UniProt Q9LHG8)
binds: [1]

mCherry-CFS1 (cell death related endosomal FYVE/SYLF protein 1) (from UniProt Q9LXL1)
no binding: [2] | [3] | [6] | [10]
not listed: [1] | [13]
binds: all other assays above

B1: GFP-ATG8A (protein, UniProt Q8LEM4 1-117)
chain: T2 sequence with A50Y, A51L
binds: [13]
